# The full ranking holds about 33,000 sequences; the median of “E-score (-0.5 to 0.5)” is about -0.0014, and the highest 2% start at about 0.25. This is one part of the list.
# Biological target: T1, Cad1 (UniProt P24813)
# T1 sequence: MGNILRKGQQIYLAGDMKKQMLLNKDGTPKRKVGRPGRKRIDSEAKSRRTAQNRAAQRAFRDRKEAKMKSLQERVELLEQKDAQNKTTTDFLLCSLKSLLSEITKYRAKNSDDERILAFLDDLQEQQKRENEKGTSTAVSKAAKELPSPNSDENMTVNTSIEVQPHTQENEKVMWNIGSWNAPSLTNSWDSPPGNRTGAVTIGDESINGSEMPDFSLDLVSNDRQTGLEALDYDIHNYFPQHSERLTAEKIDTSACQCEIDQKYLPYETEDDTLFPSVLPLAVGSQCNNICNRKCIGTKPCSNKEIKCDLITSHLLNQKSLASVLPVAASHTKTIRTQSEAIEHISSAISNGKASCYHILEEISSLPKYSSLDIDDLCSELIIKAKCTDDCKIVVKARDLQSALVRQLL
# Experiment: PBM E-score (8-mer binding enrichment) (E-score (-0.5 to 0.5)); higher = stronger / more preferred TF binding
# Conditions: protein concentration: 100 nM; construct: GST-full length
# How it was run: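 The E-score, a modified Wilcoxon-Mann-Whitney statistic, was computed by the Universal PBM Analysis Suite for every ungapped eight-base word pooled with its reverse complement. Scans behind it were normalised with masliner after bound GST-tagged yeast transcription factors were detected with fluorescent anti-GST. The proteins, at about 100-200 nM, had been applied to universal all-10-mer Agilent arrays made double-stranded by primer extension.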
row,Sequence,PBM E-score
1,AGGCGCCT,-0.0621
2,ATGAGAAG,-0.0696
3,AGCTGTTG,0.148
4,TCGAGTAA,0.221
5,ACGCGAGC,0.214
6,CAAACTGG,-0.0454
7,GAGGTCCA,-0.103
8,TTGGAAAA,-0.113
9,AGGCAATA,-0.123
10,CTTGGGTC,-0.0772
11,ACGGGGAT,-0.0909
12,CACCCTCG,-0.184
13,AACGAATA,-0.0413
14,GCAGTAGC,-0.0461
15,ACCATTGA,0.00633
16,AAGCAAGA,-0.0477
17,TAAGTCAA,-0.0989
18,GACAATCC,0.16
19,CTTATAGA,0.014
20,ATGCTAGC,-0.0118
21,AGTACTGA,0.134
22,CAATTGGA,-0.0273
23,ATGGTTTC,0.0425
24,ACCGGGCG,-0.182
25,CACATTCA,-0.0432

row,Sequence,PBM E-score
1,CCAAAAAC,0.116
2,AGATCTCG,0.0913
3,AATCAGTC,0.172
4,CAGACCGC,0.0752
5,ACTATCAG,0.0079
6,CGGCCCGA,0.00519
7,CAACCCCC,-0.387
8,AACGCAAG,0.0816
9,CGAATAAG,-0.118
10,CAACACGA,0.134
11,CAAGTCCA,-0.0962
12,GTATCGTA,0.104
13,GCCTACGA,0.0795
14,ACCACGCC,-0.187
15,TCGACCGA,0.0694
16,AAACCACA,0.0171
17,AGAGCTTC,-0.181
18,AGGTCCTG,-0.106
19,CGCTCGAA,0.122
20,ACAAACCG,0.038
21,GACAAGTA,-0.102
22,CACTCAAC,0.1
23,GGTGGATA,-0.0363
24,TAGATAAA,0.0266
25,ACGAAACG,0.0195

row,Sequence,PBM E-score
1,ACATAGTG,0.0291
2,GACTAACC,-0.122
3,GCTGCTTA,0.0501
4,CCGTTTTA,-0.188
5,CCAATTGG,0.263
6,ATAGGCCA,-0.0861
7,CACTCGCA,0.0673
8,AAAACTCT,-0.0253
9,CGGTGGGA,-0.0551
10,CCCACAAC,-0.122
11,CTAATGGC,-0.00205
12,ATTCACTG,0.0352
13,AGCGTGCA,0.131
14,CACCGGGG,-0.402
15,GATACTGC,0.0988
16,CCCTGTAG,-0.05
17,AGACGTCC,0.0957
18,ATCTGAAA,0.065
19,ACGTGACC,-0.263
20,GTGAGAGA,0.021
21,CCAGGTTA,0.0257
22,GTTCAAAA,0.0283
23,GAATCGGC,0.144
24,CAAAGACC,-0.127
25,CACCCATA,-0.159

row,Sequence,PBM E-score
1,GATGGACA,0.102
2,ACTCTCGG,-0.0764
3,TCCGAAAA,-0.0265
4,ACCCTGAG,0.0191
5,ATAACTAG,-0.00544
6,GACGCACA,-0.0334
7,CTATGATC,0.0514
8,ACACCTCA,-0.0985
9,ACCGGCTC,-0.0669
10,CCTCGAGG,0.0297
11,CTTCCGGC,0.00067
12,CTCCGCAA,-0.0758
13,CGTTTATA,0.237
14,AGAAGATA,0.116
15,CCATTAAA,-0.0479
16,CACTGGCC,-0.161
17,AGCTTCGG,-0.0805
18,ATGATTGC,0.154
19,CACTATCG,0.0968
20,TGATGGCA,-0.203
21,CGATACTA,0.163
22,CATCTGAG,-0.0546
23,AGGGGTGC,-0.208
24,AGGCACAC,-0.181
25,GATAAGCA,0.154

# For convenience, some entries already given.
row,Sequence,PBM E-score
16,CCCTGTAG,-0.05
17,AGACGTCC,0.0957
18,ATCTGAAA,0.065
19,ACGTGACC,-0.263
20,GTGAGAGA,0.021
21,CCAGGTTA,0.0257
22,GTTCAAAA,0.0283
23,GAATCGGC,0.144
24,CAAAGACC,-0.127
25,CACCCATA,-0.159
1,GATGGACA,0.102
2,ACTCTCGG,-0.0764
3,TCCGAAAA,-0.0265
4,ACCCTGAG,0.0191
5,ATAACTAG,-0.00544
6,GACGCACA,-0.0334
7,CTATGATC,0.0514
8,ACACCTCA,-0.0985
9,ACCGGCTC,-0.0669
10,CCTCGAGG,0.0297
11,CTTCCGGC,0.00067
12,CTCCGCAA,-0.0758
13,CGTTTATA,0.237
14,AGAAGATA,0.116
15,CCATTAAA,-0.0479
16,CACTGGCC,-0.161
17,AGCTTCGG,-0.0805
18,ATGATTGC,0.154
19,CACTATCG,0.0968
20,TGATGGCA,-0.203
21,CGATACTA,0.163
22,CATCTGAG,-0.0546

# Next part:

row,Sequence,PBM E-score
1,ACGCAGCA,0.121
2,CCATGACG,-0.0191
3,GCCGGAGA,-0.051
4,CTGCGCTA,0.0362
5,AGACGAGC,-0.0882
6,GCCTCCAA,-0.159
7,AACAGGAG,-0.131
8,CGCGTGAC,0.056
9,GTGGTACA,-0.133
10,TCGCGAAA,0.168
11,CCGCATCG,-0.346
12,TACGAGAA,0.0359
13,TGAAATAA,0.0334
14,CTAAAATC,-0.0595
15,GCTTTTAA,-0.0518
16,CTGGTCTA,-0.15
17,GCCGACTA,0.227
18,AGTAGAAT,0.0697
19,ACCGCTTG,-0.104
20,CAACGGGA,-0.0881
21,CGACATCC,-0.0474
22,AGATTTCC,0.185
23,AAGGCAAA,-0.0488
24,ACGTTCTA,0.0389
25,ATGACCTA,0.016

row,Sequence,PBM E-score
1,CGCGCCCC,-0.00126
2,ATGATTCA,-0.0406
3,CCGTCATC,-0.013
4,AGATTAGA,-0.0156
5,AAGTTCGT,0.0241
6,GAGCTGCA,-0.0895
7,CATCCGCC,-0.0163
8,AGGCTGGA,-0.176
9,ACACGATC,-0.0881
10,ACTAATCT,0.135
11,CGCCAGAC,0.0825
12,ACAAGTAA,-0.136
13,CAGACTCC,-0.0716
14,CTTTATAC,-0.194
15,GAATACCC,-0.0103
16,ATGTGACG,-0.185
17,ACCGTTCA,-0.0296
18,ACGCAGAC,0.0915
19,ATGGGTGG,-0.148
20,ACTCACAT,0.00257
21,ATTATTCC,0.131
22,GTGCAAGA,-0.0224
23,GTTAACCA,0.179
24,CACAGTAA,0.291
25,GCCCGCCC,-0.0832

row,Sequence,PBM E-score
1,CTTTAAGA,0.191
2,GAGCGACA,0.0316
3,GCTGAGCA,0.149
4,GAAAGTGC,-0.245
5,CTGGTTGA,-0.197
6,GGAAGCTA,0.174
7,AGTCCGGA,0.226
8,AGTAGCGA,0.0562
9,CCAATAAA,0.169
10,GACCTGTA,-0.148
11,AAAATAAT,0.314
12,CGGTATGC,-0.0872
13,CACCACGA,0.0868
14,AGACACAG,0.0295
15,ACGGCATG,0.0114
16,CAGTATGA,0.0583
17,CCCCGTCG,-0.23
18,AGACACAT,-0.154
19,AAAAGAAC,0.118
20,CTCGATAA,0.0969
21,ATAAAGGA,-0.21
22,GTAGCTGA,0.0883

# Reference: the supplement of paper PMC3334620
